Measurements reported in PubChem BioAssay AID1224830 (NIAID, 2016).
The deposit covers about 18,000 reagents; below is a random part of them. Of all reagents, about 2,900 (16%) are marked active. 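Calls are made per well; low scores hint the gene aids the LPS response, high scores that it dampens it.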 Repeated entries: four replicate wells of each siRNA pool.

- Screen: 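Host factors that control LPS-induced TNF expression in human macrophages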 (primary screen)
- Cell system: human THP-1 monocytic leukaemia cells, TNF dual-luciferase reporter clone, PMA-differentiated to macrophage-like cells
- Knock-down reagent: siRNA pool against human genes, 50 nM
- Time to read-out: LPS for 4 h, given about 3 days after siRNA transfection
- Treatment: bacterial LPS (TLR4 ligand), 10 ng/ml
- Measurement: 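Ratio of firefly to renilla light, scaled to the plate median and expressed as a robust z-score per replicate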
- Scale: TNF reporter robust z-score: higher = stronger TNF reporter response to LPS
- Call rule: 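a well is active when its z-score exceeds 2.8 or falls below -1.5; control wells carry no call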

| TNF reporter robust z-score | call | Target gene |
| --- | --- | --- |
| -1.06 | inactive | SNU13 |
| -0.87 | inactive | SNU13 |
| -0.56 | inactive | SNU13 |
| 0.28 | inactive | SNU13 |
| 0.73 | inactive | HSD17B3 |
| 0.95 | inactive | HSD17B3 |
| -0.71 | inactive | HSD17B3 |
| 0.06 | inactive | HSD17B3 |
| -0.79 | inactive | NDN |
| -0.97 | inactive | NDN |
| -0.8 | inactive | NDN |
| -0.42 | inactive | NDN |
| -0.14 | inactive | ZNF618 |
| 0 | inactive | ZNF618 |
| -0.38 | inactive | ZNF618 |
| 1.04 | inactive | ZNF618 |
| 1.72 | inactive | RNF141 |
| -0.69 | inactive | RNF141 |
| -0.49 | inactive | RNF141 |
| 0.25 | inactive | RNF141 |
| 1.57 | inactive | MEIS3 |
| 1.62 | inactive | MEIS3 |
| -1.29 | inactive | MEIS3 |
| -0.31 | inactive | MEIS3 |
| 0.67 | inactive | DAPK3 |
| 0.9 | inactive | DAPK3 |
| 1.1 | inactive | DAPK3 |
| 0.19 | inactive | DAPK3 |
| -0.57 | inactive | KAZALD1 |
| 0.01 | inactive | KAZALD1 |
| -0.19 | inactive | KAZALD1 |
| -0.48 | inactive | KAZALD1 |
| -0.49 | inactive | B3GNT6 |
| 0.21 | inactive | B3GNT6 |
| -0.25 | inactive | B3GNT6 |
| -0.57 | inactive | B3GNT6 |
| -1.49 | inactive | DAG1 |
| -0.17 | inactive | DAG1 |
| -0.09 | inactive | DAG1 |
| 1.29 | inactive | DAG1 |
| -0.18 | inactive | ZNF8 |
| -0.64 | inactive | ZNF8 |
| -0.34 | inactive | ZNF8 |
| -0.55 | inactive | ZNF8 |
| 0.21 | inactive | NRCAM |
| 1.66 | inactive | NRCAM |
| 0.27 | inactive | NRCAM |
| -0.84 | inactive | NRCAM |
| -0.57 | inactive | CENPW |
| -0.58 | inactive | CENPW |
| -0.04 | inactive | CENPW |
| 0.33 | inactive | CENPW |
| 1.55 | inactive | ART5 |
| 4.6 | active | ART5 |
| 0.6 | inactive | ART5 |
| 1.29 | inactive | ART5 |

The list goes on, starting with the last 10 of the part before.
| TNF reporter robust z-score | call | Target gene |
| --- | --- | --- |
| 0.27 | inactive | NRCAM |
| -0.84 | inactive | NRCAM |
| -0.57 | inactive | CENPW |
| -0.58 | inactive | CENPW |
| -0.04 | inactive | CENPW |
| 0.33 | inactive | CENPW |
| 1.55 | inactive | ART5 |
| 4.6 | active | ART5 |
| 0.6 | inactive | ART5 |
| 1.29 | inactive | ART5 |
| -0.41 | inactive | EXD2 |
| -0.11 | inactive | EXD2 |
| 1.15 | inactive | EXD2 |
| 1.01 | inactive | EXD2 |
| -1.87 | active | ATMIN |
| -0.71 | inactive | ATMIN |
| -1.26 | inactive | ATMIN |
| -1.08 | inactive | ATMIN |
| -0.9 | inactive | MCM4 |
| -0.32 | inactive | MCM4 |
| -0.46 | inactive | MCM4 |
| -0.49 | inactive | MCM4 |
| -1.05 | inactive | CYP2W1 |
| -1.39 | inactive | CYP2W1 |
| -0.51 | inactive | CYP2W1 |
| -0.89 | inactive | CYP2W1 |
| -0.19 | inactive | HOXA3 |
| 1 | inactive | HOXA3 |
| 0.58 | inactive | HOXA3 |
| -0.15 | inactive | HOXA3 |
| -0.19 | inactive | GFPT1 |
| 0.78 | inactive | GFPT1 |
| 0.47 | inactive | GFPT1 |
| 0.2 | inactive | GFPT1 |
| – | inactive | TBC1D7 |
| -0.38 | inactive | TBC1D7 |
| -0.43 | inactive | TBC1D7 |
| 0.42 | inactive | TBC1D7 |
| -0.49 | inactive | TBC1D7 |
| 0.87 | inactive | MUCL3 |
| 1.02 | inactive | MUCL3 |
| 1.04 | inactive | MUCL3 |
| 2.88 | active | MUCL3 |
| 1.26 | inactive | KHDC4 |
| 0.95 | inactive | KHDC4 |
| 0.12 | inactive | KHDC4 |
| -0.87 | inactive | KHDC4 |
| -0.16 | inactive | KIF2A |
| 1.92 | inactive | KIF2A |
| 0.96 | inactive | KIF2A |
| 1.16 | inactive | KIF2A |
| -0.54 | inactive | CFAP20 |
| 0.04 | inactive | CFAP20 |
| -1.04 | inactive | CFAP20 |
| -0.41 | inactive | CFAP20 |
| -1.56 | active | HPSE2 |
| -0.99 | inactive | HPSE2 |
| -1.29 | inactive | HPSE2 |
| -0.16 | inactive | HPSE2 |
| 2.55 | inactive | SNRNP35 |
| 1.04 | inactive | SNRNP35 |
| 2.29 | inactive | SNRNP35 |
| 1.51 | inactive | SNRNP35 |
| -0.48 | inactive | B2M |
| -0.31 | inactive | B2M |
| -1.05 | inactive | B2M |
| -0.7 | inactive | B2M |
| -0.52 | inactive | ETV5 |
| -0.67 | inactive | ETV5 |
| 0.33 | inactive | ETV5 |
| 0.93 | inactive | ETV5 |
| -0.96 | inactive | ZNF45 |
| -0.94 | inactive | ZNF45 |
| -1.37 | inactive | ZNF45 |
| -1.44 | inactive | ZNF45 |
| -0.71 | inactive | PLBD2 |
| 0.6 | inactive | PLBD2 |
| 0.16 | inactive | PLBD2 |
| 0.79 | inactive | PLBD2 |
| -0.36 | inactive | L1CAM-AS1 |
| -0.33 | inactive | L1CAM-AS1 |
| -0.52 | inactive | L1CAM-AS1 |
| -0.74 | inactive | L1CAM-AS1 |
| -0.51 | inactive | ZFP36L2 |
| -0.14 | inactive | ZFP36L2 |
| 0.06 | inactive | ZFP36L2 |
| -0.03 | inactive | ZFP36L2 |
| -0.55 | inactive | UAP1L1 |
| 0.61 | inactive | UAP1L1 |
| -0.81 | inactive | UAP1L1 |
| 0.29 | inactive | UAP1L1 |
| 0.49 | inactive | ARID4A |
| 1.16 | inactive | ARID4A |
| 0.19 | inactive | ARID4A |
| 0.38 | inactive | ARID4A |
